The other results are listed elsewhere or left out.

Chains of the proteins cited; added tags and fusions are not shown. Lines headed by an entry give the natural chain unless they say otherwise; changes in a name come on top.
UniProt Q04656: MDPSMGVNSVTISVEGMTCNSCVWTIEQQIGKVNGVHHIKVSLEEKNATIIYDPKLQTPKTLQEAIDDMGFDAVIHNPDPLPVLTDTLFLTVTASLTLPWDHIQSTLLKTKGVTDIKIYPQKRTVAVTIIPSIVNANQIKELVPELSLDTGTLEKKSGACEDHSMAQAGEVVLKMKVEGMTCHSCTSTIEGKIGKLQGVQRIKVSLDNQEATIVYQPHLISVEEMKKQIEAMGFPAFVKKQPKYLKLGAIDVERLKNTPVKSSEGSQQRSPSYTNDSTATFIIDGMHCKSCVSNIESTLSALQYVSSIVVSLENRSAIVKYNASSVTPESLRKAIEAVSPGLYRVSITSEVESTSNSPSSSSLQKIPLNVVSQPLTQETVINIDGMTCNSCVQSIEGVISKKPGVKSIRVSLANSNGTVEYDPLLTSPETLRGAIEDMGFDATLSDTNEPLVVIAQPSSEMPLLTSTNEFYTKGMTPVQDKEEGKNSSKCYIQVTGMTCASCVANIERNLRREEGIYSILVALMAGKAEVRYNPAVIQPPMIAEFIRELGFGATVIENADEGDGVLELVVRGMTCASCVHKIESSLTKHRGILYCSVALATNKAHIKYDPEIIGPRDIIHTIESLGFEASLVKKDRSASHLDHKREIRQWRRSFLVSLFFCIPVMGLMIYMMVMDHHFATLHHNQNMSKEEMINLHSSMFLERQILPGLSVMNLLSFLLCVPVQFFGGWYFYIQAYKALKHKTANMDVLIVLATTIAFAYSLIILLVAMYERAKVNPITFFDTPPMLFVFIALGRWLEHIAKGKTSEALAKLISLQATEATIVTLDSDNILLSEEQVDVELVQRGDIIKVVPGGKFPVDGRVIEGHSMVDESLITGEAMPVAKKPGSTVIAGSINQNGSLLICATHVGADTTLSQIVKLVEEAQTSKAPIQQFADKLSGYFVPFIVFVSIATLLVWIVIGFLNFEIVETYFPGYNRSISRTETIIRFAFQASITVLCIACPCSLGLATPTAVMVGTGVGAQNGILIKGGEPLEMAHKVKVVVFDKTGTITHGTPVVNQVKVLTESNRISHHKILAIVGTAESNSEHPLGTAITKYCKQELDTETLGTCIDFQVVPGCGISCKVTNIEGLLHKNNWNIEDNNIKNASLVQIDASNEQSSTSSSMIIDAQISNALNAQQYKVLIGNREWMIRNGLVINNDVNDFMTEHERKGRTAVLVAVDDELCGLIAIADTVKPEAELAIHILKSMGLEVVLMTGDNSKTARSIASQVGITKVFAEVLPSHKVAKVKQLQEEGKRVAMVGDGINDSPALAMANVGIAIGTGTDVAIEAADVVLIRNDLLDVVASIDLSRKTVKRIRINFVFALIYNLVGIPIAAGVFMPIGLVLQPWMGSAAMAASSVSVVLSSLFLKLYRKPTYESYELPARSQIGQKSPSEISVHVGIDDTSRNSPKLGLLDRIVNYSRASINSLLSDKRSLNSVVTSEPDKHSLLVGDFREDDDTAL
UniProt Q15041, whole entry, looked up: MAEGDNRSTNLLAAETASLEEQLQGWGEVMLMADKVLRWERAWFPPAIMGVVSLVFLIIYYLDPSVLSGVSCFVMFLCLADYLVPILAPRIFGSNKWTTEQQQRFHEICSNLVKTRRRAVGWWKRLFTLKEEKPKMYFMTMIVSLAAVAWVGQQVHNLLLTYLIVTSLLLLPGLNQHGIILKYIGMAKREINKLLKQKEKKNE
UniProt P56134: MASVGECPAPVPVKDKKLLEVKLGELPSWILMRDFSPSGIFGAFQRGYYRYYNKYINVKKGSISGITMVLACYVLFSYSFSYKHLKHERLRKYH
UniProt O75787, whole entry, looked up: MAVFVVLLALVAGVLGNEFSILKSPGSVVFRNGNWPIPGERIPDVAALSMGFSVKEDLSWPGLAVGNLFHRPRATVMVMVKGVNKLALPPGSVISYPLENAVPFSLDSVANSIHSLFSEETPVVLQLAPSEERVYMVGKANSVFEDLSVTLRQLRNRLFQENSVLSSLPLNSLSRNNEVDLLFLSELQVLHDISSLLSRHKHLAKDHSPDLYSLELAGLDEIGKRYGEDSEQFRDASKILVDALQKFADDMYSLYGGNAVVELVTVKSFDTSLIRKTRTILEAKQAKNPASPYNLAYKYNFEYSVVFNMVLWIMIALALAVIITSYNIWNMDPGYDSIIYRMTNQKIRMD
UniProt P25705: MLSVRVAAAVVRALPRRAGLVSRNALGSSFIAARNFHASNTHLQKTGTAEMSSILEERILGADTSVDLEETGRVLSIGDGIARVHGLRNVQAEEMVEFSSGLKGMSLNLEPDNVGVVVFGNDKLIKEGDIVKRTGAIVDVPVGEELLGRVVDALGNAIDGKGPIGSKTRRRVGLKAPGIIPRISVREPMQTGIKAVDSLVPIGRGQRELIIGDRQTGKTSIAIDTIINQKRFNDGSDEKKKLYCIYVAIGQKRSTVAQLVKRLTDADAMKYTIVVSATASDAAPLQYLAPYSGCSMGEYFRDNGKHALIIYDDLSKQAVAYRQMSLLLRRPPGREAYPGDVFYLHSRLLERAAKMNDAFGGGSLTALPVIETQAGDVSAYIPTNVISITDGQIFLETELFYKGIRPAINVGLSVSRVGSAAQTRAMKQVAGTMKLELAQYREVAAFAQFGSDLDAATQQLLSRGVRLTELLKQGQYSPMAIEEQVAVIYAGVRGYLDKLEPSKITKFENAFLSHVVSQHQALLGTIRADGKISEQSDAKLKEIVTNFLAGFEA
UniProt Q8N5M1: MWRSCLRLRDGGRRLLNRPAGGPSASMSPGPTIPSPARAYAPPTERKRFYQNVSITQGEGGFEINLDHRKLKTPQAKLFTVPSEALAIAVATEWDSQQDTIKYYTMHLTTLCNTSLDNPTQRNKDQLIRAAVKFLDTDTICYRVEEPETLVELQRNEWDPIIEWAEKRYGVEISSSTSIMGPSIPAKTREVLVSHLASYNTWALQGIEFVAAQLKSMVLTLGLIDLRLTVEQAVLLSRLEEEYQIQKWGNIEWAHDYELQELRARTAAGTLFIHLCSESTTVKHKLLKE
UniProt Q92747, whole entry, looked up: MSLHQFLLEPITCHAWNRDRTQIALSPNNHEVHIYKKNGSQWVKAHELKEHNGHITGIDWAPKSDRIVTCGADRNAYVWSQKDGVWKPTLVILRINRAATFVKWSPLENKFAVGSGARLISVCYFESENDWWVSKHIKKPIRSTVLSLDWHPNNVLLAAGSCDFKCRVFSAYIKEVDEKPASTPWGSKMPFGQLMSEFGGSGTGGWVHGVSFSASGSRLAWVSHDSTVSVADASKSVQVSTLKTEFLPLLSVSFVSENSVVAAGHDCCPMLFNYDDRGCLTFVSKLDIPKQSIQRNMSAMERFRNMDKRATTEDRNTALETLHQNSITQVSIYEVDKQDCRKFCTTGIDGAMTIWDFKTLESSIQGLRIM
UniProt O95260: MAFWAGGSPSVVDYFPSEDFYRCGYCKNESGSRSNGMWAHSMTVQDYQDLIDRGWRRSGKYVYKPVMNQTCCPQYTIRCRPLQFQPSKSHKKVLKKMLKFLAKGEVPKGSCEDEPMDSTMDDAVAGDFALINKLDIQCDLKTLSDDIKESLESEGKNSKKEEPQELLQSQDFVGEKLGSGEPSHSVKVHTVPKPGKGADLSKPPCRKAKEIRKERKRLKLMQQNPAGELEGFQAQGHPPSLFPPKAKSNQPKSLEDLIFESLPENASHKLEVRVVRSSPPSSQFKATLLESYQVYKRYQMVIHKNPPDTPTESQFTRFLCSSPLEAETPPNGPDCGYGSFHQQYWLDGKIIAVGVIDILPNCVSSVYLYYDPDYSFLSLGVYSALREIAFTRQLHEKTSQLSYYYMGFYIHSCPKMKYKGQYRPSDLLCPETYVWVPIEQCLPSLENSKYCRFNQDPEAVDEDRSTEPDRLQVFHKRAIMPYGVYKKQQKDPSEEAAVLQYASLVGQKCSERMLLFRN
UniProt P98194: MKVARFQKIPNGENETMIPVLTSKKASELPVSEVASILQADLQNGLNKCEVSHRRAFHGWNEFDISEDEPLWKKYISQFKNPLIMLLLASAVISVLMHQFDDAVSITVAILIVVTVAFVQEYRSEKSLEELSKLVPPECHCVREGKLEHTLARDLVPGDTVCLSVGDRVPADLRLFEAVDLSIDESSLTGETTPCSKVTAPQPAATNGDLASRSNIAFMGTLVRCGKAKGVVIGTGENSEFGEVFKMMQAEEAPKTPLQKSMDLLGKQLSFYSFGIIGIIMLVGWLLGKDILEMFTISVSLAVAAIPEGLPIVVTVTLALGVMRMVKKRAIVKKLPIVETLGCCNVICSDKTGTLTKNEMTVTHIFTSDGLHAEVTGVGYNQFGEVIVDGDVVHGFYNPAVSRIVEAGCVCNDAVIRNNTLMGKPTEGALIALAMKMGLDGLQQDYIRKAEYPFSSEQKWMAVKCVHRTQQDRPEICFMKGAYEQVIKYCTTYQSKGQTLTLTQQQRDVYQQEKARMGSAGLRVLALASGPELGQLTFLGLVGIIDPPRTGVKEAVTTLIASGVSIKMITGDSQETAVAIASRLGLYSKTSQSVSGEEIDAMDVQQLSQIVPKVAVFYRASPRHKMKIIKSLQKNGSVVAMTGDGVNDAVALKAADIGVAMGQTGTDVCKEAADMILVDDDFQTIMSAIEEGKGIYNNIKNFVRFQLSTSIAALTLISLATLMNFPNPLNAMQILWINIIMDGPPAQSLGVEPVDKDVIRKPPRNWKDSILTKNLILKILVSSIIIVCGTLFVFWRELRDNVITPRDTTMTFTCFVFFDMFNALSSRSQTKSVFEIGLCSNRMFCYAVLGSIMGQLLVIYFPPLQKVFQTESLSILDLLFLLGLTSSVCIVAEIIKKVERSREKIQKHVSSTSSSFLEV
UniProt Q06055: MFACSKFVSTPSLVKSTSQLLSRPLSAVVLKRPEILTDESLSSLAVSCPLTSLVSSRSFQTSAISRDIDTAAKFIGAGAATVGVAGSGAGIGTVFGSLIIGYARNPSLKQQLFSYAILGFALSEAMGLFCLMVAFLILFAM
UniProt P15336: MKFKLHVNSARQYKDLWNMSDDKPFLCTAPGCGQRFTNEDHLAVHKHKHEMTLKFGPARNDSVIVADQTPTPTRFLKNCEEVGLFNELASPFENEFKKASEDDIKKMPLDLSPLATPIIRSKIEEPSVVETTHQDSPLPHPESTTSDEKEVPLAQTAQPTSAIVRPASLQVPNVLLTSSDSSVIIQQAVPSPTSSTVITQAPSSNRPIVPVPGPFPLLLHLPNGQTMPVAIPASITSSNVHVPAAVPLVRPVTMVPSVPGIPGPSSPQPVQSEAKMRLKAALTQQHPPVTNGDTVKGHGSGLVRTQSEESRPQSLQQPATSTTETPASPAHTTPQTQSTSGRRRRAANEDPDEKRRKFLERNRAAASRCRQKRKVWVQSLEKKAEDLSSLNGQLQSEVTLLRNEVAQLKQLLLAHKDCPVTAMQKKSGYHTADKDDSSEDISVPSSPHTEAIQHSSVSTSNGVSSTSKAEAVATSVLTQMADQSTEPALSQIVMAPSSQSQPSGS
UniProt Q8NB49: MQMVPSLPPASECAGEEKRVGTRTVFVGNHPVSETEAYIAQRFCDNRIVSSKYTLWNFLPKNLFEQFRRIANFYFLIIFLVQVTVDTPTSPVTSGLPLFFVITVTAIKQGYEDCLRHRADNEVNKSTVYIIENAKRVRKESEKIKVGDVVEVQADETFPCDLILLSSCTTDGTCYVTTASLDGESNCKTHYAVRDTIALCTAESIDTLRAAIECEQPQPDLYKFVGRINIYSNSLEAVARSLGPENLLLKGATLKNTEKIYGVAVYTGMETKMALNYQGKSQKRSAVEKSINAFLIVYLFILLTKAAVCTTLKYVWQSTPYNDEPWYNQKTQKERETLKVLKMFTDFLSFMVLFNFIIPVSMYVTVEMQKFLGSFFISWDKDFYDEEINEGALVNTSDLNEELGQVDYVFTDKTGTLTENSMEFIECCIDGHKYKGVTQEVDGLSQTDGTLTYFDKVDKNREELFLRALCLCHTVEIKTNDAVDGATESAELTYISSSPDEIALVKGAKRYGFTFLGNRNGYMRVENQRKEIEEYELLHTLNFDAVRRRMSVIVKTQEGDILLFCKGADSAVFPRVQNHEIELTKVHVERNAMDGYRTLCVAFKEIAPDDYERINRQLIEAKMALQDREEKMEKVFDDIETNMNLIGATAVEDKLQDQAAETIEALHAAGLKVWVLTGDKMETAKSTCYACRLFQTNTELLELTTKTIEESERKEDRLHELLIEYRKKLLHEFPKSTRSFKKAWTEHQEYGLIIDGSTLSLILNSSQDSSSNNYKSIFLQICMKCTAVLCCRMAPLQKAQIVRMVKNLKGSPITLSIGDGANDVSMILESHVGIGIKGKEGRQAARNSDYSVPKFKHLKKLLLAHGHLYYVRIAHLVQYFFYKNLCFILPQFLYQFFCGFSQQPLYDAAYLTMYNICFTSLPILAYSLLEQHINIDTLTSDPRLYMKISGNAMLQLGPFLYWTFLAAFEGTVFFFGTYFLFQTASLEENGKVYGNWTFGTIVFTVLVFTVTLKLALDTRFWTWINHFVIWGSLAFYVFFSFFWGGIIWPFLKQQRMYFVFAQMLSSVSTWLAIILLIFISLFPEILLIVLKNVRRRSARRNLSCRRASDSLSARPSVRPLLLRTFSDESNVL

Compound in the first test: CCn1cc(-c2ccnc3[nH]c(-c4cccc(CN(C)C)c4)cc23)c(-c2ccc(NC(=O)N(C)C)cc2)n1
Put plainly: log2 fold change, soluble protein after heating vs DMSO (PISA); higher = thermal stabilisation; K562 cells, 10 uM, 30 min; active = over 0.2 and 3.5 SD of the protein, either way, in both replicates (recomputed). In outline: (§1)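 K562 cells at 2×10^6 cells/mL were treated with 10 μM compound for 30 min. Aliquots were heated for 3 min across 48°C-58°C, pooled, and extracted in PBS with 0.5% NP-40 at 4°C; soluble protein was the supernatant after 21,000xg for 90 min. Soluble protein was quantified by TMTpro 16plex LC-MS/MS with channel sums equalised, and reported as log2 fold change in thermal stability against DMSO controls, with values from duplicates.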
In the case of ATP7A isoform 3 (UniProt Q04656), the log2 fold change was inactive: -0.016.

Consider ARPC1B (UniProt O15143), for which the log2 fold change is inactive: -0.068.

As to ASAP1 isoform 2 (UniProt Q9ULH1), the log2 fold change is inactive: 0.078.

Consider ATG3 (UniProt Q9NT62), for which the log2 fold change is inactive: -0.03.

As to ARL6IP1 (UniProt Q15041), the log2 fold change is inactive: -0.11.

In the case of ATG2A isoform 3 (UniProt Q2TAZ0), the log2 fold change was inactive: 0.004.

With ARRB2 isoform 4 (UniProt P32121), the log2 fold change was inactive: 0.016.

ATP5MF (UniProt P56134): the log2 fold change is inactive: -0.082.

With ASPM (UniProt Q8IZT6), the log2 fold change was inactive: 0.074.

Turning to ATP6V1A (UniProt P38606), the log2 fold change was inactive: -0.107.

For the target ATP11B (UniProt Q9Y2G3), the log2 fold change was inactive: -0.005.

For ASL (UniProt P04424), the log2 fold change was inactive: -0.032.

Consider ATP6AP2 (UniProt O75787), for which the log2 fold change is inactive: 0.033.

ASAH1 isoform 2 (UniProt Q13510): the log2 fold change was inactive: -0.023.

Regarding ATP5F1A (UniProt P25705), the log2 fold change was inactive: 0.031.

As for ARIH2 (UniProt O95376), the log2 fold change is inactive: -0.009.

For ARPC3 (UniProt O15145), the log2 fold change was inactive: -0.029.

Take ATPAF2 (UniProt Q8N5M1): the log2 fold change is inactive: 0.052.

With ATG2B (UniProt Q96BY7), the log2 fold change was inactive: -0.013.

On to ARPC1A (UniProt Q92747), for which the log2 fold change is inactive: -0.034.

For ATP5F1E (UniProt P56381), the log2 fold change was inactive: 0.036.

Take ATE1 isoform 2 (UniProt O95260): the log2 fold change is inactive: -0.157.

As to ASPH (UniProt Q12797), the log2 fold change was inactive: 0.097.

As to ATP2C1 isoform 7 (UniProt P98194), the log2 fold change was inactive: 0.097.

For ATL3 (UniProt Q6DD88), the log2 fold change is inactive: -0.072.

Regarding ARPC5 (UniProt O15511), the log2 fold change was inactive: 0.025.

As for ARPC2 (UniProt O15144), the log2 fold change is inactive: -0.034.

As for ATP5MC2 isoform 2 (UniProt Q06055), the log2 fold change is inactive: 0.022.

Turning to ARMC1 (UniProt Q9NVT9), the log2 fold change is inactive: -0.031.

For the target ATF2 (UniProt P15336), the log2 fold change is inactive: 0.028.

Consider ATP6V0D1 (UniProt P61421), for which the log2 fold change is inactive: 0.023.

ASCC3 (UniProt Q8N3C0): the log2 fold change is inactive: 0.047.

Consider ARPC4 isoform 3 (UniProt P59998), for which the log2 fold change is inactive: 0.004.

Take ARV1 (UniProt Q9H2C2): the log2 fold change was inactive: -0.039.

Regarding ARSB (UniProt P15848), the log2 fold change is inactive: 0.

With ASF1A (UniProt Q9Y294), the log2 fold change was inactive: -0.003.

ATP11C (UniProt Q8NB49): the log2 fold change was inactive: -0.071.

Consider ATP2B4 (UniProt P23634), for which the log2 fold change was inactive: -0.07.

Compound in the next test: CN(C)CC(=O)Nc1ccc2[nH]c(=O)c3ccccc3c2c1
The test is described as above. In outline: as §1
In the case of ATP7A isoform 3 (UniProt Q04656), the log2 fold change is inactive: 0.01.

Consider ARPC1B (UniProt O15143), for which the log2 fold change was inactive: 0.06.

With ASAP1 isoform 2 (UniProt Q9ULH1), the log2 fold change was inactive: 0.059.

As for ATG3 (UniProt Q9NT62), the log2 fold change was inactive: -0.01.

As for ARL6IP1 (UniProt Q15041), the log2 fold change was inactive: -0.005.

ATG2A isoform 3 (UniProt Q2TAZ0): the log2 fold change is inactive: 0.02.

With ARRB2 isoform 4 (UniProt P32121), the log2 fold change was inactive: -0.017.

With ATP5MF (UniProt P56134), the log2 fold change is inactive: -0.003.

Consider ASPM (UniProt Q8IZT6), for which the log2 fold change is inactive: 0.013.

For ATP6V1A (UniProt P38606), the log2 fold change was inactive: -0.008.

As for ATP11B (UniProt Q9Y2G3), the log2 fold change was inactive: -0.044.

On to ASL (UniProt P04424), for which the log2 fold change is inactive: -0.008.

Turning to ATP6AP2 (UniProt O75787), the log2 fold change was inactive: -0.048.

ASAH1 isoform 2 (UniProt Q13510): the log2 fold change is inactive: 0.034.

For ATP5F1A (UniProt P25705), the log2 fold change is inactive: -0.02.

Take ARIH2 (UniProt O95376): the log2 fold change was inactive: -0.016.

Turning to ARPC3 (UniProt O15145), the log2 fold change was inactive: 0.002.

With ATPAF2 (UniProt Q8N5M1), the log2 fold change is inactive: -0.005.

Take ATG2B (UniProt Q96BY7): the log2 fold change is inactive: 0.001.

For the target ARPC1A (UniProt Q92747), the log2 fold change is inactive: -0.01.

Consider ATP5F1E (UniProt P56381), for which the log2 fold change was inactive: -0.085.

Turning to ATE1 isoform 2 (UniProt O95260), the log2 fold change is inactive: 0.053.

ASPH (UniProt Q12797): the log2 fold change is inactive: -0.061.

ATP2C1 isoform 7 (UniProt P98194): the log2 fold change is inactive: -0.002.

Take ATL3 (UniProt Q6DD88): the log2 fold change is inactive: 0.016.

In the case of ARPC5 (UniProt O15511), the log2 fold change was inactive: 0.003.

As to ARPC2 (UniProt O15144), the log2 fold change is inactive: 0.002.

Take ATP5MC2 isoform 2 (UniProt Q06055): the log2 fold change was inactive: 0.124.

Consider ARMC1 (UniProt Q9NVT9), for which the log2 fold change is inactive: 0.048.

As for ATF2 (UniProt P15336), the log2 fold change is inactive: 0.1.

ATP6V0D1 (UniProt P61421): the log2 fold change is inactive: 0.003.

As for ASCC3 (UniProt Q8N3C0), the log2 fold change was inactive: -0.011.

On to ARPC4 isoform 3 (UniProt P59998), for which the log2 fold change was inactive: -0.025.

With ARV1 (UniProt Q9H2C2), the log2 fold change is inactive: 0.047.

ARSB (UniProt P15848): the log2 fold change was inactive: 0.036.

As to ASF1A (UniProt Q9Y294), the log2 fold change is inactive: 0.006.

Regarding ATP11C (UniProt Q8NB49), the log2 fold change is inactive: 0.042.

As to ATP2B4 (UniProt P23634), the log2 fold change was inactive: -0.08.

The values above are taken from the supplement of paper PMC10849652.
